## Assay results

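Genome-wide siRNA knockdown in TC32 Ewing sarcoma cells, comparing luciferase light from an NR0B1-promoter reporter with a CMV-promoter reporter 48 hours after transfection. Each siRNA was applied at 20 nM. A z-score of the log NR0B1-over-CMV signal, less the median of siRNAs with the same seed; more negative means a stronger specific loss of the NR0B1 reporter.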

This is part of the screen; most of the strongest results are not listed here. Sequences are the guide (antisense) strand, without overhang.

siRNA,gene,seed-corrected z-score
UACGCUUUCUACAAUGGGC,SNCAIP,0.5954
UACUAUACCCACAAUGUAC,TMPRSS11F,-0.1284
AAACUUCCCGGCAAAAGUG,UVSSA,-0.2063
AGUAUAGCUGGUGUAAUGG,PAMR1,0.2056
UUAGUAGCAGGUGGAUUAG,KIAA1217,-1.408
UGCACUUAAAUAGAGUUCG,PHRF1,0.3378
UAAAGAGGUAUGCUCGUCC,YPEL2,-1.038
UUUUGGGACACUUGCAGGC,NTN1,0.3182
UAGAGACCAAAGGCUCUCC,SPN,0.3204
UGUCUUAUUUCAUCCGUGC,C12orf40,-0.1093
UUAUAGGAGAUCUUGAGCU,PLEC,0.8114
AUUGAUAUGAGAGUUUUUC,ACTR3C,-0.5503
UCUCUGUUCGCGUUGAUGC,PRDM16,-0.3023
UUCAUCAUGACCGAUACCU,TNK1,-1.811
AUCCGUAAAGACAAUAGAC,DCDC5,0.7983
UCUCUGAAAUCUAUCAUUG,NANOG,0.5534
UCCUUUAUGACUAGGAGGG,C12orf77,-0.3689
AAACUUCACAAAGUGGGAG,TMEM81,-0.2147
UUAGUAGUGAGGUCUAGCC,FOXP2,-0.2609
UUAGCAUGAAUAUAGAAGC,DDX6,0.1608
UGAUUUUCACCGUAUAGCC,CACYBP,0.4572
UUCGGGCAUGGGUAGAAGC,ARL14EPL,-0.2746
UGCCAAAACACUCUCGGCG,NEU4,0.3082
UGACUAAUCAUAGACAUUC,RPL37P23,0.1676
UAAUUGGGUAUGCAGGUUG,PDCL3,0.4025
UUGUAGAUAAAAGAUAUCC,DHX35,-0.1289
UUUCUUCUCAACGGACUUG,CCDC183,1.835
UAACCAAACACUGAGACAG,PIGZ,-0.1059
AACUUGAGUCCAACCGGGC,NUTM2E,-0.9291
UCCUCAUCCGGAAUCUUCG,GJD4,0.6464
AUCGGUGUGAUCUUCAGCU,AFAP1L2,0.1865
AGUGCUAUCAGCUCUGUCC,AFAP1L1,-0.6585
UAAGGCGAACGGAUGGUCC,APBA1,-0.1373
UUUCGAACAUGAUCAGCAG,RALGAPA1,-1.488
UCAAUCAUCUCGAUGUUGG,CTTN,-0.7154
UGUAAACCAAGCCUGGCUU,SPRED3,-1.163
UUUGUUUCACGAAGGGCUU,LIX1,-0.6444
AUUACGAACAUUCAAAUGG,FDFT1,0.2331
UCAACUUCAUUCAUUAGCC,RSPH3,0.4491
UACCAAUCCUAUUAGAGUC,NFX1,-0.1494
UAUACUGUGACCCAGUUUG,DPY19L3,-0.5619
ACAUUGAUCACAGGGAUAG,ZNF271P,0.4218
UCCACAAGAAGAUCGAUCC,SHKBP1,-0.7
ACACUUGAAGUAGCGAUUG,ZNF414,-0.01276
UAAGGUUACUUUACUCUUU,FABP12,0.2475
UGCUGUACAAUUCACGACC,HERC1,0.4197
UUUGGUUCCAAACAGCUGC,TRIM47,0.544
AUAGAUUACAUUGACCUUG,OR52N5,-0.9913
UUGGUGGUCAUCGUAUUCU,RING1,-0.2889
UCUGGAAUUAGUCAGGAUG,OR51V1,0.3977
UCAAUACUGUGGGACUUGC,SPATA31D5P,-0.4631
UUUCAUUCCACAACGGAUU,GTF3C5,-0.1799
UUUGAGUUGAUAAAUCCCG,DHODH,-1.558
UGACUACCGAUGGUAAGGC,MTL5,0.3435
UCAGGGAGCUUGGUCUUUC,TMEM95,-0.3344
UGUUCAGCAAGUGAUACUG,ALOX12,-0.3936
UAAGAACUGACCUUUGUUC,PHF10,0.656
AUAACGACCAGAGAUUAGG,FSCN3,0.1479
UCAUUUGGAACUCAGCUGU,PLP1,-0.5346
UUUGUGAACACGGCUGCUG,ALDH1A3,0.07945
UCCUCUACUAUUAAUUUCC,CTAGE1,0.3954
AUAGCGACCAUUGAGAUUU,FCN3,-0.374
AGCUUGACUCGAUUAGUCC,DUSP1,-0.4933
UUCCUUCAAGUCACCAUCC,CHST8,0.1571
UUCGCUUCAAUGCACAUCG,BMP2K,1.041
AAACUUGUGGGUUUUAGUG,NIP7,0.01973
UCUGAAGCAAAUGUCGUAG,TUBB4B,-0.07849
UUGGUUUCGGGCAUGAAUC,UVRAG,-0.2422
UUUCGAGUUUGAUAGAUUC,C4orf36,0.4953
UAGAGAUAUAGAUCAAUUC,FGF19,1.15

The first 6 entries again:

| siRNA | gene | seed-corrected z-score |
|---|---|---|
| `UACGCUUUCUACAAUGGGC` | SNCAIP | 0.5954 |
| `UACUAUACCCACAAUGUAC` | TMPRSS11F | -0.1284 |
| `AAACUUCCCGGCAAAAGUG` | UVSSA | -0.2063 |
| `AGUAUAGCUGGUGUAAUGG` | PAMR1 | 0.2056 |
| `UUAGUAGCAGGUGGAUUAG` | KIAA1217 | -1.408 |
| `UGCACUUAAAUAGAGUUCG` | PHRF1 | 0.3378 |

Source: PubChem BioAssay AID1159506 (NCATS, 2015).